This note sets out measurements from paper doi:10.1101/2022.05.13.491370.

Protein sequences, listed by entry. Tags and fused reporters are not part of them. Residues count along the entry.
UniProt Q8BWG9: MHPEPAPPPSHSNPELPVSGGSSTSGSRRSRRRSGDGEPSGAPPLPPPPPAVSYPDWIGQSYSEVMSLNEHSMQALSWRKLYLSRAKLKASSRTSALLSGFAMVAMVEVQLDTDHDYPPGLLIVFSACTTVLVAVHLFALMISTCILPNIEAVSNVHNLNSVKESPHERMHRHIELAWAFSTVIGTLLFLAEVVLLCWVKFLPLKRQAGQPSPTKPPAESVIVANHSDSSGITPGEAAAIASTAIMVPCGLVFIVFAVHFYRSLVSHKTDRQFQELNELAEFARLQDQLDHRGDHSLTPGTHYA
UniProt P70302, residues 23-685: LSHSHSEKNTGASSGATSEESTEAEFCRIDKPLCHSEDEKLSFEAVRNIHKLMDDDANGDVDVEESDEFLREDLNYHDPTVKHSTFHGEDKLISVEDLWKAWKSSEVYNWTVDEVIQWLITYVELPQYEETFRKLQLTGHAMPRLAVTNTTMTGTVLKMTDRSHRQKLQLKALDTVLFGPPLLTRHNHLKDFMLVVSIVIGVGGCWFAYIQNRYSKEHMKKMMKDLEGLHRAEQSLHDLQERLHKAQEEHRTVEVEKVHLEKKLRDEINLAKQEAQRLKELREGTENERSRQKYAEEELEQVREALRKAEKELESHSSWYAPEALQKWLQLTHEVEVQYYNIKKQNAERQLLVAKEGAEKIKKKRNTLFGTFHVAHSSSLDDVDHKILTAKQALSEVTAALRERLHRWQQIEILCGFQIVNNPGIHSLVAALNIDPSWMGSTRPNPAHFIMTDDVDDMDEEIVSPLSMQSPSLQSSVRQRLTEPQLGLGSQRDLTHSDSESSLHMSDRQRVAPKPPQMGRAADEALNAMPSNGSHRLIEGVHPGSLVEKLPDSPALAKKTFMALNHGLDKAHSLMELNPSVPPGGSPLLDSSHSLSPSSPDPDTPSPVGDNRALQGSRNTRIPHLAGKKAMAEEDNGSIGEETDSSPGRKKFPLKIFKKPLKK

In the experiment the target is YFP-Orai1 (mouse) (UniProt Q8BWG9). Kind of experiment: FRET or BRET. (Bioluminescence resonance energy transfer reports proximity on the nanometre scale.)

No constants are given. Whether binding was seen depends on the method and setting. In cells and extracts the contact can be indirect. Some results given as binding are weak or reduced against the parent protein; the word gives no strength.

As to “STIM1-CFP (Stromal interaction molecule 1 fused to CFP) (from UniProt P70302 23-685)”, the binding result is recorded as “binds”.
